No constants are given. Whether binding was seen depends on the method and setting. Binding seen in cells or lysates may run through a third protein. Binding calls can cover weak binding; strength is not graded here.
Biological target: circulating thrombomodulin in human plasma (human (endogenous in plasma)) (UniProt P07204)
Test: co-IP

Amino acid sequences for entries named in this document (tags omitted). A change or cut given only in a name is not applied to a line headed by its entry. Residues count along the entry.
UniProt P07204: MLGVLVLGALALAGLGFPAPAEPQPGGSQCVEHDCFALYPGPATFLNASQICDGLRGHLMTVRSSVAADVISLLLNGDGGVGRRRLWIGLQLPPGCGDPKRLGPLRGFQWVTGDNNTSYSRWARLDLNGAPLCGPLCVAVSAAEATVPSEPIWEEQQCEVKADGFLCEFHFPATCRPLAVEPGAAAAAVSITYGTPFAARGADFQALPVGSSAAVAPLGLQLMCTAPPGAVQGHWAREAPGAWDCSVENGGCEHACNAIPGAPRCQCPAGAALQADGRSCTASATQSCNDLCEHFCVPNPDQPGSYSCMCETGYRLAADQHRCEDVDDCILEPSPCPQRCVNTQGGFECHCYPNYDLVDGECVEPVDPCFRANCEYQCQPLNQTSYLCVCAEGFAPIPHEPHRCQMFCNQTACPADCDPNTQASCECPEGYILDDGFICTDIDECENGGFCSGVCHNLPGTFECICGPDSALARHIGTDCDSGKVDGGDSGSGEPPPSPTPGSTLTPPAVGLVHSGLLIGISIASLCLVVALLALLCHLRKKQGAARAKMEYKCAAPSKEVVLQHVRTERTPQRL
UniProt O15123, residues 19-496: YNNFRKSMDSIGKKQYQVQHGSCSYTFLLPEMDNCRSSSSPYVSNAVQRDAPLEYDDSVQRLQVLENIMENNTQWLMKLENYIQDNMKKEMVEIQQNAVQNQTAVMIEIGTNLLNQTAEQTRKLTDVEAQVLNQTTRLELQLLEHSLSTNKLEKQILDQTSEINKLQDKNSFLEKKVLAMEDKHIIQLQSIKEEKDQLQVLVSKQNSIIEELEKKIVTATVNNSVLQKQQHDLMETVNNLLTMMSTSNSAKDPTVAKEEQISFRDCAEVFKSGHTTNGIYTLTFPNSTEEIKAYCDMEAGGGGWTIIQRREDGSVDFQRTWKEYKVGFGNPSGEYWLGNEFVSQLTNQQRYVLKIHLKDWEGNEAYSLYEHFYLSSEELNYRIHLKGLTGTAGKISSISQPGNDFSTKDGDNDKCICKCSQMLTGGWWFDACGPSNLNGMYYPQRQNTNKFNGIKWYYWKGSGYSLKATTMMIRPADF

“Angiopoietin-2 (ANGPT2), circulating in human plasma (from UniProt O15123 19-496)” was tested, and the binding was “binds”.
